Data as given in PubChem BioAssay AID1259254 (NCATS, 2017)
Assay: 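Genome-wide screen for genes that prevent DNA re-replication in cancer cells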 (primary screen). Cell system: human HCT116 colorectal cancer cells. Knock-down reagent: single siRNA against human genes. Time to read-out: 3 days. Read-out: 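Imaged Hoechst DNA stain sorts each cell into a cycle phase by DNA amount; per plate, G2 fraction set to 0% for non-targeting and 100% for GMNN siRNA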. Scale: G2 robust z-score: higher = more G2 cells, more excess DNA replication. Hit rule: 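Active siRNAs have a G2 robust z of 5 or more median absolute deviations over the median, which in these data means about 38% or higher of GMNN control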.
Here is an unselected part of about 59,000 deposited reagents. Over the whole deposit, about 1,550 (2.6%) are marked active. 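G2 share is only a proxy for re-replication; each gene was hit by three separate siRNAs, and active genes were retested.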 Unmarked entries are inactive. Reagents against one gene are numbered here. Not all columns of the deposit are shown. Not stated in the record: the amount of reagent.

no.	Target gene	reagent no.	G2 robust z-score
1	MAPRE3	1	0.637
2	MAPRE3	2	-0.647
3	MAPRE3	3	3.45
4	DLEC1	1	0.396
5	DLEC1	2	-0.574
6	DLEC1	3	-0.296
7	SHTN1	1	-0.539
8	SHTN1	2	0.534
9	SHTN1	3	-0.693
10	CERKL	1	0.11
11	CERKL	2	0.193
12	CERKL	3	3.13
13	ANP32A	1	-0.942
14	ANP32A	2	0.0213
15	ANP32A	3	1.09
16	DDC	1	-0.751
17	DDC	2	3.81
18	DDC	3	-0.226
19	KCTD10	1	3.34
20	KCTD10	2	0.768
21	KCTD10	3	7.33 (active)
22	SPANXN3	1	-0.295
23	SPANXN3	2	1.56
24	SPANXN3	3	-0.579
25	COL11A2	1	-0.838
26	COL11A2	2	4.22
27	COL11A2	3	0.378
28	IMP3	1	3.83
29	IMP3	2	-0.365
30	IMP3	3	0.742
31	ICAM1	1	0.0659
32	ICAM1	2	1.83
33	ICAM1	3	0.402
34	PDCD1LG2	1	-0.835
35	PDCD1LG2	2	0.949
36	PDCD1LG2	3	2.92
37	ENKUR	1	-0.0616
38	ENKUR	2	-0.724
39	ENKUR	3	-0.575
40	MYH1	1	-1.07
41	MYH1	2	-0.629
42	MYH1	3	0.032
43	PLSCR5	1	-0.941
44	PLSCR5	2	-0.503
45	PLSCR5	3	0.0153
46	PPIL1	1	0.0206
47	PPIL1	2	1.88
48	PPIL1	3	0.136
